No constants are given. Whether binding was seen depends on the method and setting. Some entries that bind do so weakly or less than the wild type. Sequences can lack the tags named with a protein.
T1: Smc4-L1333V-L1335A, 3xStrepTagII-tagged (S. cerevisiae) (UniProt Q12267)
T1 sequence: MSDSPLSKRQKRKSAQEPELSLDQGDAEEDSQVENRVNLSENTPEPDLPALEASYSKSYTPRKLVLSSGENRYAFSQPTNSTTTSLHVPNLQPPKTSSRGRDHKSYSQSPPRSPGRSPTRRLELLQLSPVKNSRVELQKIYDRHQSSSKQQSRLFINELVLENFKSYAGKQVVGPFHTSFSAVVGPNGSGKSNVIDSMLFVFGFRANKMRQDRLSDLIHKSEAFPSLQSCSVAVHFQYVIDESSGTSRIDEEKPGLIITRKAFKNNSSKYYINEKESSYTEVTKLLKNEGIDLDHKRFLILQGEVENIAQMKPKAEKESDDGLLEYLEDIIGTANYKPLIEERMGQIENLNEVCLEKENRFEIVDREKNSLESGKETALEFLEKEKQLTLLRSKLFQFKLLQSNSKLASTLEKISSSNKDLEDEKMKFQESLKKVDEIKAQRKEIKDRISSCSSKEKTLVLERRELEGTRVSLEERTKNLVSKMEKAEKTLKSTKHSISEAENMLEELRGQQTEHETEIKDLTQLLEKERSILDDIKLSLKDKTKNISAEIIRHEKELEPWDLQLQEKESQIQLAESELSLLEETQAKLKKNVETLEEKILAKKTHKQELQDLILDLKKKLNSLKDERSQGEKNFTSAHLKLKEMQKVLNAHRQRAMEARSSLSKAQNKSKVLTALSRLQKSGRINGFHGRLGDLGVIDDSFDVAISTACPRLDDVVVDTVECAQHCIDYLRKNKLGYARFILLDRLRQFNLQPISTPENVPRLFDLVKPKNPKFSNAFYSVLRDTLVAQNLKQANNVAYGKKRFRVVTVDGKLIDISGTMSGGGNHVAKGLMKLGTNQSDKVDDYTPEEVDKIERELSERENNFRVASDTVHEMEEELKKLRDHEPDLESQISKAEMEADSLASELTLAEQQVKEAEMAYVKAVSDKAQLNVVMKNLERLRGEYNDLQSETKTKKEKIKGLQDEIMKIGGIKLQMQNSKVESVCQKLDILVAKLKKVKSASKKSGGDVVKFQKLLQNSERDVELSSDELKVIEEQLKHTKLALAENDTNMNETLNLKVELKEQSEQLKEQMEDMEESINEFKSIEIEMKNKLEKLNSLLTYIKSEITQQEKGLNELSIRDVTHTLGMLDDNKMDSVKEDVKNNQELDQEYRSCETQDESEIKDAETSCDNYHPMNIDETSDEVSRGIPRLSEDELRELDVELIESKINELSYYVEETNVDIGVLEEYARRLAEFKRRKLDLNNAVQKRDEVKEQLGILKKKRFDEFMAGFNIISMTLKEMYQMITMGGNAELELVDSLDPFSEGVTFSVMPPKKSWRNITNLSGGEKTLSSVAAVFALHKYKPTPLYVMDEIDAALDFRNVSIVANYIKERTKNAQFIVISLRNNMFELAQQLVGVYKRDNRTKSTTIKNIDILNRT

B1: Smc2 (protein, UniProt P38989 1-1170)
chain: MKVEELIIDGFKSYATRTVITDWDPQFNAITGLNGSGKSNILDAICFVLGIASMSTVRASSLQDLIYKRGQAGVTKASVTIVFDNTDKSNSPIGFTNSPQISVTRQVVLGGTSKYLINGHRAPQQSVLQLFQSVQLNINNPNFLIMQGKITKVLNMKPSEILSLIEEAAGTKMFEDRREKAERTMSKKETKLQENRTLLTEEIEPKLEKLRNEKRMFLEFQSTQTDLEKTERIVVSYEYYNIKHKHTSIRETLENGETRMKMLNEFVKKTSEEIDSLNEDVEEIKLQKEKELHKEGTISKLENKENGLLNEISRLKTSLSIKVENLNDTTEKSKALESEIASSSAKLIEKKSAYANTEKDYKMVQEQLSKQRDLYKRKEELVSTLTTGISSTGAADGGYNAQLAKAKTELNEVSLAIKKSSMKMELLKKELLTIEPKLKEATKDNELNVKHVKQCQETCDKLRARLVEYGFDPSRIKDLKQREDKLKSHYYQTCKNSEYLKRRVTNLEFNYTKPYPNFEASFVHGVVGQLFQIDNDNIRYATALQTCAGGRLFNVVVQDSQTATQLLERGRLRKRVTIIPLDKIYTRPISSQVLDLAKKIAPGKVELAINLIRFDESITKAMEFIFGNSLICEDPETAKKITFHPKIRARSITLQGDVYDPEGTLSGGSRNTSESLLVDIQKYNQIQKQIETIQADLNHVTEELQTQYATSQKTKTIQSDLNLSLHKLDLAKRNLDANPSSQIIARNEEILRDIGECENEIKTKQMSLKKCQEEVSTIEKDMKEYDSDKGSKLNELKKELKLLAKELEEQESESERKYDLFQNLELETEQLSSELDSNKTLLHNHLKSIESLKLENSDLEGKIRGVEDDLVTVQTELNEEKKRLMDIDDELNELETLIKKKQDEKKSSELELQKLVHDLNKYKSNTNNMEKIIEDLRQKHEFLEDFDLVRNIVKQNEGIDLDTYRERSKQLNEKFQELRKKVNPNIMNMIENVEKKEAALKTMIKTIEKDKMKIQETISKLNEYKRETLVKTWEKVTLDFGNIFADLLPNSFAKLVPCEGKDVTQGLEVKVKLGNIWKESLIELSGGQRSLIALSLIMALLQFRPAPMYILDEVDAALDLSHTQNIGHLIKTRFKGSQFIVVSLKEGMFANANRVFRTRFQDGTSVVSIM
B2: Brn1-3xHA-12xHIS (protein, UniProt P38170 1-754)
chain: MTTQLRYENNDDDERVEYNLFTNRSTMMANFEEWIKMATDNKINSRNSWNFALIDYFYDLDVLKDGENNINFQKASATLDGCIKIYSSRVDSVTTETGKLLSGLAQRKTNGASNGDDSNGGNGEGLGGDSDEANIEIDPLTGMPISNDPDVNNTRRRVYNRVLETTLVEFETIKMKELDQELIIDPLFKKALVDFDEGGAKSLLLNTLNIDNTARVIFDASIKDTQNVGQGKLQRKEEELIERDSLVDDENEPSQSLISTRNDSTVNDSVISAPSMEDEILSLGMDFIKFDQIAVCEISGSIEQLRNVVEDINQAKDFIENVNNRFDNFLTEEELQAAVPDNAEDDSDGFDMGMQQELCYPDENHDNTSHDEQDDDNVNSTTGSIFEKDLMAYFDENLNRNWRGREHWKVRNFKKANLVNKESDLLEETRTTIGDTTDKNTTDDKSMDTKKKHKQKKVLEIDFFKTDDSFEDKVFASKGRTKIDMPIKNRKNDTHYLLPDDFHFSTDRITRLFIKPGQKMSLFSHRKHTRGDVSSGLFEKSTVSANHSNNDIPTIADEHFWADNYERKEQEEKEKEQSKEVGDVVGGALDNPFEDDMDGVDFNQAFEGTDDNEEASVKLDLQDDEDHKFPIRENKVTYSRVSKKVDVRRLKKNVWRSINNLIQEHDSRKNREQSSNDSETHTEDESTKELKFSDIIQGISKMYSDDTLKDISTSFCFICLLHLANEHGLQITHTENYNDLIVNYEDLATTQAAS
B3: Ycs4 (protein, UniProt Q06156 1-1176)
chain: MSGFSLSEYLTKFQTTDRESYPRLQDPSRELNVIIDQLAVSPEQIDASPDSLEALIDLCHDFPHLTPKLQTQLSYLISSSLSNLSKDIKANLSSNVNFTEIGGLIPQWKRHLEEYGYLIQVLLTFLQDELHKVSSQSTNLNRSAKNSKNDSANVELFKRDCNQMENLLESITKLLEINLSKIFQTTPEKDLFIGLFTRPLFVLLEIEPVTKVSSLKMFIQRILAMCVKNHGQSSSIQSSLMTNLTYFLHLSVFNAELLKLLNDEYNYPQLTEDILKEISTRVFNAKDTTGPKAISNFLIKLSELSPGIMLRQMNLVITLLNNSSITLRCSVVEACGNIVAELAQDPQTMEHYKQQIAVLIELLEERFQDSNPYVRTKAIQGCSKICDLSSKFNKSKAKFTSLAVRSLQDRSSLVRRNSVKLLSKLLLKHPFKAIHGSQLRLSEWEEYLKGSESQLNSTLKKVESQETLNDTIERSLIEEEVEQDEGQCRTELEGSFNKSAELSRIENEVENINATNTSVLMKLKLMIVYYKDAISFIKEIHKSIELISNLLFSKNRNEVLESMDFLVLADAFDIELSEFGIKKMLHLVWMKGTNDEGTSISVHLIECYKQLFLTAPDSCNMQEKAAHIAKNLINLSIGASIADLASLEQLLGMMYEQKLIDQHVINILWAIYNSASKASMQKEQNVNNRDSEKGFSKEQIHGSIIILGMLSLADNEIALKGLESLLNIGLGAVGLKDLTLCRYSCLALERMVPKRSTIITKAINQELEDVAVKKLYAIIINYTKDNEYYPMCEQALSALFTISSKPDILATDLIREKTMMTFGKPEEEDSILSLEQSSRVVSLSQLLFIVGQVAIKTLVYLEKCEAEFKKRKIEAETRNGKVKNQGADVTNTTQDNGGDKELEMIGGTNEDDFTDAIQFVKENELLFGEKSILGKFCPIVEEIVSNSSRFSDPMLQRTATLCLEKLMCLSSKYCEKSLPLLITVMEKSPDPTIRSNAVLGLGDMAVCFNNLVDENTDYLYRRLHDENLMVQRTCLMTVTFLILAGQVKVKGQLGEMAKCLDNPDQGISDMCRLFFTELASKDNAIYNGFIDIFSNLSSDDLLGKESFKKIIKFLLTFIDKERHQKQLNEKLVGRLRKCETQKQWDDIAFVLNNLPYKNEDVTALLEQGFKVVSAKE
B4: Ycg1-3xFLAG-9xHIS (protein, UniProt Q06680 1-1035)
chain: MQDPDGIDINTKIFNSVAEVFQKAQGSYAGHRKHIAVLKKIQSKAVEQGYEDAFNFWFDKLVTKILPLKKNEIIGDRIVKLVAAFIASLERELILAKKQNYKLTNDEEGIFSRFVDQFIRHVLRGVESPDKNVRFRVLQLLAVIMDNIGEIDESLFNLLILSLNKRIYDREPTVRIQAVFCLTKFQDEEQTEHLTELSDNEENFEATRTLVASIQNDPSAEVRRAAMLNLINDNNTRPYILERARDVNIVNRRLVYSRILKSMGRKCFDDIEPHIFDQLIEWGLEDRELSVRNACKRLIAHDWLNALDGDLIELLEKLDVSRSSVCVKAIEALFQSRPDILSKIKFPESIWKDFTVEIAFLFRAIYLYCLDNNITEMLEENFPEASKLSEHLNHYILLRYHHNDISNDSQSHFDYNTLEFIIEQLSIAAERYDYSDEVGRRSMLTVVRNMLALTTLSEPLIKIGIRVMKSLSINEKDFVTMAIEIINDIRDDDIEKQEQEEKIKSKKINRRNETSVDEEDENGTHNDEVNEDEEDDNISSFHSAVENLVQGNGNVSESDIINNLPPEKEASSATIVLCLTRSSYMLELVNTPLTENILIASLMDTLITPAVRNTAPNIRELGVKNLGLCCLLDVKLAIDNMYILGMCVSKGNASLKYIALQVIVDIFSVHGNTVVDGEGKVDSISLHKIFYKVLKNNGLPECQVIAAEGLCKLFLADVFTDDDLFETLVLSYFSPINSSNEALVQAFAFCIPVYCFSHPAHQQRMSRTAADILLRLCVLWDDLQSSVIPEVDREAMLKPNIIFQQLLFWTDPRNLVNQTGSTKKDTVQLTFLIDVLKIYAQIEKKEIKKMIITNINAIFLSSEQDYSTLKELLEYSDDIAENDNLDNVSKNALDKLRNNLNSLIEEINERSETQTKDENNTANDQYSSILGNSFNKSSNDTIEHAADITDGNNTELTKTTVNISAVDNTTEQSNSRKRTRSEAEQIDTSKNLENMSIQDTSTVAKNVSFVLPDEKSDAMSIDEEDKDSESFSEVC

Molecular target: T1, Smc4-L1333V-L1335A, 3xStrepTagII-tagged (S. cerevisiae)
Experiment: tandem affinity co-purification (Ni-NTA, Strep-Trap) + SEC; five condensin subunits co-overexpressed in yeast; extract in 500 mM NaCl, 10 mM Tris-HCl pH 8.0, 10% glycerol; Ni-NTA (His tags on Brn1 and Ycg1), then Strep-Trap HP (3xStrepTagII on Smc4), then Superose 6 10/300 in 200 mM NaCl, 50 mM Tris-HCl pH 8.0; subunits seen by SDS-PAGE and Coomassie staining

binding, binds:
B1, B2, B3, B4
